Data reported in US10770169B2, “Method of providing a treatment to a subject based on a dynamic pathway map” (THE REGENTS OF THE UNIVERSITY OF CALIFORNIA, priority 2010, dated 2020).
“Also recorded” adds a separate entry of the source. At least one compound was matched to its structure with a doubt left.

System: luminal, basal, claudin-low and ERBB2AMP breast cancer cell lines
Experiment: Associations of clinically relevant subtypes and response (non-parametric ANOVA or t-test on GI50 ranks)
Format: cell-based, human
Settings: for Subtype specificity: Table 6, most sensitive subtype, FDR p<0.20
Excerpt: A central premise of this study is that associations between responses and molecular subtypes observed in preclinical cell line analyses will be recapitulated in the clinic in instances where the predictive molecular features in the cell lines are mirrored in human tumors. We established response-subtype associations by using non-parametric ANOVAs to compare […] values across transcriptional and genomics subtypes.
Differences between GI50s of the groups were compared with a non-parametric ANOVA or t-test, as appropriate, on the ranks. We combined the p-values for the three sets of tests and used false discovery rate (FDR) to correct for multiple testing. For the three-sample test, we performed a post-hoc analysis on the compounds with a significant class effect by comparing each group to all others to determine which group was most sensitive. The p-values for the post-hoc test were FDR-corrected together. In all cases, FDR p<0.20 was deemed significant. […] Analyses were performed in R.

## COC1=C2C[C@@H](C)C[C@H](OC)[C@H](O)[C@@H](C)/C=C(\C)[C@H](OC(N)=O)[C@@H](OC)/C=C\C=C(/C)C(=O)NC(=CC1=O)C2=O [Geldanamycin]
  association of response with ERBB2 amplification: positively associated with ERBB2 amplification
  Subtype specificity: ERBB2AMP
GI50 across subtypes
  subtype-specific response (sensitivity by transcriptional subtype): ERBB2^AMP cell lines are sensitive; also recorded: ERBB2AMP cell lines are sensitive

## COc1cc(Nc2c(C#N)cnc3cc(OCCCN4CCN(C)CC4)c(OC)cc23)c(Cl)cc1Cl [Bosutinib]
  Subtype specificity: Basal + Claudin-low

## CO[C@H]1C[C@@H]2CC[C@@H](C)[C@@](O)(O2)C(=O)C(=O)N2CCCC[C@H]2C(=O)O[C@H]([C@H](C)C[C@@H]2CC[C@@H](O)[C@H](OC)C2)CC(=O)[C@H](C)/C=C(\C)[C@@H](O)[C@@H](OC)C(=O)[C@H](C)C[C@H](C)/C=C/C=C/C=C/1C [Rapamycin]
  Subtype specificity: Luminal
